PubChem BioAssay AID686937 | Drosophila RNAi Screening Center, 2013

Test: 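Genes in the fly needed for secretion of protein constitutively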 (primary screen)
System: Drosophila S2 cells expressing secreted horseradish peroxidase
Reagent: long dsRNA against Drosophila genes
Duration: about 5.5 days (5 days dsRNA, then 12 h reporter induction)
Challenge: reporter expression induced after 5 days of dsRNA, read 12 h later; inducer not stated
Read-out: 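Chemiluminescent measurement of peroxidase in the medium 12 h after reporter induction, following 5 days of dsRNA, given as a z-score per plate; higher means more secretion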
Direction: z-score: higher = more reporter secreted into medium
In all, the deposit lists about 23,000 reagents; shown is an unselected part of those with a known target gene and a result. 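Reduced-secretion tags in replicate 1 do not always agree with the z-scores; no criterion for assigning the tags was given.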 A plus sign joins genes that one reagent is predicted to hit. The record does not give: the amount of reagent.

no.	Gene	DRSC id	z-score, replicate 1	z-score, replicate 2	z-score, replicate 3	z-score, replicate 4	phenotype, replicate 1
1	Patsas (GeneID 34634)	DRSC02975	0.45	0.49			
2	CG4281 (GeneID 31171)	DRSC18521	0.73	0.68			
3	CG13594 (GeneID 37940)	DRSC04229	0.65	0.42			
4	CG30373 (GeneID 246573)	DRSC05081	-0.06				
5	CG5355 (GeneID 34421)	DRSC02844	-0.37	0.19			
6	CG13377 (GeneID 30972)	DRSC18622	0.25	0.2			
7	Cpr50Ca (GeneID 36523)	DRSC05454	0.47	-0.04			
8	Cpr50Ca (GeneID 36523)	DRSC06372	0.4	0.43			
9	Cpr50Ca (GeneID 36523)	DRSC06375	0.3	0.39			
10	TM4SF (GeneID 37786)	DRSC04661	0.16	0.15			
11	CG31546 (GeneID 40691)	DRSC12317	0.15	0.19			
12	CG4702 (GeneID 41472)	DRSC15626	0.26	0.26			
13	NKAIN (GeneID 37979)	DRSC04531	0.06	-0.05			
14	NKAIN (GeneID 37979)	DRSC22470	-0.01	-0.03			
15	Tep4 (GeneID 35248)	DRSC03453	0.35	0.16			
16	RpL24-like (GeneID 41372)	DRSC16111	-0.36	-1.15			
17	CG42542 (GeneID 8674000)	DRSC15549	0.04	-0.04			
18	CG42542 (GeneID 8674000)	DRSC22264	-0.43	0.09			
19	cola + swif	DRSC06826	0.29	0.2			
20	cola + swif	DRSC21965	-0.3	-0.06			
21	Prp19 (GeneID 37123)	DRSC07434	-2.4	-1.16			reduced secretion
22	Atox1 (GeneID 326216)	DRSC22416	0.35	0.21			
23	CG9928 (GeneID 34704)	DRSC03274	-0.45	0			
24	CG17982 (GeneID 31739)	DRSC18143	0.32	0.72			
25	Pde9 (GeneID 32233)	DRSC19746	0.24	0.27			
26	Pde9 (GeneID 32233)	DRSC19874	0.27	0.36			
27	Pde9 (GeneID 32233)	DRSC19875	0.37	0.37			
28	Pde9 (GeneID 32233)	DRSC19876	0.2	0.59			
29	Mzt1 (GeneID 10178948)	DRSC07979	-0.44	-0.11			
30	CG9782 (GeneID 32632)	DRSC19145	0.34	-0.2			
31	CG9782 (GeneID 32632)	DRSC20209	0.14	0.56			
32	CG13488 (GeneID 37496)	DRSC04133	-0.02	0.47			
33	Or22c (GeneID 33381)	DRSC00766	0.11	0.36			
34	CG6765 (GeneID 38971)	DRSC10706	0.02	0.28			
35	dpr19 (GeneID 34408)	DRSC02237	0.14	0.05			
36	Srp9 (GeneID 38883)	DRSC10973	-0.63	-0.41			
37	COX7AL2 (GeneID 5740746)	DRSC00099	0.33	0.37			
38	COX5B (GeneID 33918)	DRSC02115	-0.11	-0.79			
39	Toll-7 (GeneID 37272)	DRSC07563	0.1	0.15	0.11	0.31	
40	Rab14 (GeneID 34840)	DRSC03403	0.23	0.22			
41	CG11699 (GeneID 32101)	DRSC19419	0.05	0.07			
42	Faa (GeneID 45577)	DRSC08451	0.19	0.29			
43	Vhl (GeneID 53433)	DRSC07716	0.35	0.21			
44	RpS16 (GeneID 37580)	DRSC04442	-4.13	-3.84			reduced secretion
45	CG7381 (GeneID 41589)	DRSC16238	0.31	0.43			
46	eIF5B (GeneID 44261)	DRSC08429	-1.64	-0.7			reduced secretion
47	eIF5B (GeneID 44261)	DRSC08710	-2.06	-0.74			reduced secretion
48	LysX (GeneID 38122)	DRSC08678	0.49	0.47			

Single entries from the entries so far:
Under “z-score, replicate 2”, NKAIN (GeneID 37979) [DRSC04531] reads -0.05
Result of CG7381 (GeneID 41589) [DRSC16238] under “z-score, replicate 2”: 0.43
Result of Toll-7 (GeneID 37272) [DRSC07563] in “z-score, replicate 3”: 0.11
Entry of CG30373 (GeneID 246573) [DRSC05081] under “z-score, replicate 1”: -0.06
Value of CG9928 (GeneID 34704) [DRSC03274] under “z-score, replicate 2”: 0
Entry of Pde9 (GeneID 32233) [DRSC19876] in “z-score, replicate 1”: 0.2

The listing continues.
no.	Gene	DRSC id	z-score, replicate 1	z-score, replicate 2	z-score, replicate 3	z-score, replicate 4	phenotype, replicate 1
49	ppk22 (GeneID 318593)	DRSC22093	-0.19	0.28			
50	CG7556 (GeneID 32902)	DRSC20052	-1.87	-2.49			reduced secretion
51	CG43428 (GeneID 12798467)	DRSC06205	0.29	0.26			
52	Loxl1 (GeneID 43712)	DRSC14303	0.39	0.35			
53	Cngl (GeneID 32468)	DRSC19089	-1.39	0.51			
54	Cngl (GeneID 32468)	DRSC19795	-0.04	0.11			
55	Cngl (GeneID 32468)	DRSC20318	-0.07	-0.51			
56	CG14280 (GeneID 42312)	DRSC14761	0.21	0.22			
57	CG1648 (GeneID 36009)	DRSC06610	-0.15	0.54	0.45	0.15	
58	CG42360 (GeneID 37937)	DRSC04224	-0.05	0.08			
59	CG3085 (GeneID 37663)	DRSC04335	0.22	0.42			
60	CG4022 (GeneID 39082)	DRSC10395	0.41	0.47			
61	Pgm2b (GeneID 36649)	DRSC05978	0.25	0.25			
62	CG8149 (GeneID 41137)	DRSC16391	0.32	0.13			
63	sei (GeneID 37843)	DRSC04713	0.14	0.14			
64	kl-3 (retired record) (GeneID 5740653)	DRSC20730	0.41	-0.12			
65	kl-3 (retired record) (GeneID 5740653)	DRSC20891	0.53	0.27			
66	kl-3 (retired record) (GeneID 5740653)	DRSC20934	-0.94	0.01			
67	Ref1 (GeneID 44029)	DRSC12497	-1.39	0.18	0.21	-0.31	
68	Ref1 (GeneID 44029)	DRSC22387	1.52	2.7			
69	dUTPase (GeneID 34529)	DRSC01998	0.23	0.33			
70	CG33271 (GeneID 2768972)	DRSC10583	-1.5	-2.44			reduced secretion
71	Jheh3 (GeneID 37182)	DRSC06533	0.73	0.39			
72	Vha68-2 (GeneID 45012)	DRSC02721	-0.23	0.17			
73	asRNA:CR33945 (GeneID 3772292)	DRSC14080	0.38	0.57			
74	CG33784 (GeneID 3772181)	DRSC12764	0.01	0.54			
75	CG34382 (GeneID 5740788)	DRSC08999	0.54	0.22			
76	CG34382 (GeneID 5740788)	DRSC10166	0.3	0.13			
77	CG34382 (GeneID 5740788)	DRSC10167	0.95	0.34			
78	Trs23 (GeneID 34197)	DRSC03190	0.25	-0.22			
79	Rok (GeneID 43916)	DRSC20277	0.17	0.22			
80	CG9877 (GeneID 37666)	DRSC04587	0.01	0.33			
81	spn-A (GeneID 43577)	DRSC16812	-0.09	0.08			
82	CG3610 (GeneID 41795)	DRSC15502	0.55	0.6			
